The record followed here is PubChem BioAssay AID493014 (National Center for Advancing Translational Sciences (NCATS), 2011).

This is one part of the list. Further columns of the screen follow, without active or inactive calls. Compounds called inactive in the main read-out are mostly missing here. Words in brackets tell the shape of the fitted curve; partial curves, single points and poor fits give uncertain potencies.

A short description of this experiment: qHTS Assay to Find Inhibitors of Chronic Active B-Cell Receptor Signaling. The note with it: ABC-DLBCL IkBa-CBG/CBR reporter, luminescence ratio (green luciferase fused to IkBa over red control in TMD8 lymphoma cells), 4 h. The gist of the method: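 Compounds up to 46 uM were incubated four hours with TMD8 cells whose green CBG68 luciferase is fused to IkappaBalpha; red CBR luminescence normalised the signal, and concentration-effect curves were fitted to fusion, red and ratio data.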
Background: Quantitative high-throughput screening tests each substance at several concentrations.

The mark [1] stands for this setting: measured here: CBR red luminescence, cell number.
Setting [2] is: measured here: IkBa-CBG green luminescence.

As usually defined, the AC50 is the concentration giving half of the maximal activity seen. Turning to `Cc1cccc(C2=NNC(=O)C(c3ccc(Cl)cc3)C2)c1` (configuration not stated), under setting [1], the concentration at half-maximal activity (AC50) is 20 µM [falling, single point].

Consider `COc1ccc(OCC(=O)Nc2cc(-c3nn(C)c(=O)c4ccccc34)ccc2N2CCOCC2)cc1`, for which, under setting [1], the AC50 is 4.47 µM [rising, single point].

As for `COc1ccc(NC(=O)c2cc(Br)ccc2Cl)c(OC)c1`, the AC50 under setting [1] is 18.4 µM [rising, partial curve, poor fit].

As for `COc1ccc2[nH]c(CN3CCN(CC(C)C)C(CCO)C3)c(C)c2c1` (configuration not stated), the AC50 under setting [1] was 0.355 µM [falling, full curve, poor fit].

On to `Brc1ccc(-c2nnc3sc(CN4CCC5(CC4)OCCO5)cn23)cc1`, for which, under setting [1], the AC50 is 4.61 µM [rising, full curve].

As for `CC1CCCN(C(=O)C2(NC(=O)Nc3cccc(F)c3)CCCCC2)C1` (configuration not stated), the concentration at half-maximal activity (AC50) under setting [1] is 17.8 µM [rising, single point].

For `O=C(NCCO)c1cccc(Nc2nc(-c3ccccc3)c3cc(Cl)ccc3n2)c1`, the AC50 under setting [1] was 0.316 µM [falling, full curve, poor fit].

On to `COC(=O)c1ccc(COC(=O)CNC(=O)c2ccco2)cc1`, for which the AC50 under setting [1] is 1.64 µM [rising, partial curve, poor fit].

Turning to `O=C1SC(SC(=Nc2ccccc2)Nc2ccccc2)C(=O)N1c1ccccc1` (configuration not stated), under setting [1], the AC50 was 5.17 µM [falling, partial curve].

Regarding `CC(OC(=O)c1ccco1)C(=O)Nc1ccc(Cl)cn1` (configuration not stated), the AC50 under setting [1] was 12.6 µM [falling, partial curve, poor fit].

Take `O=[N+]([O-])c1ccc(N/N=C2\CC3CC=CC23)cc1` (configuration not stated): under setting [1], the AC50 is 35.5 µM [falling, single point].

In the case of `c1ccc(-c2nc3ccccc3[nH]2)nc1`, the AC50 under setting [1] is 13 µM [falling, single point].

For `COc1cc(/C(C#N)=C/c2ccccc2)c([N+](=O)[O-])cc1OC`, the AC50 under setting [1] was 29.1 µM [falling, partial curve, poor fit].

`O=C(Nc1ccc(Br)c(Cl)c1)c1ccco1`: the half-maximal activity concentration (AC50) under setting [1] is 5.17 µM [rising, single point].

For the molecule `C/C(Cn1nnc2ccccc21)=N\NC(=O)c1cccc(Br)c1`, the concentration at half-maximal activity (AC50) under setting [1] was 4.11 µM [falling, partial curve, poor fit].

For `CCN1C(=NCc2ccco2)N[C@@H](c2cccc(F)c2)C(C(=O)OC)=C1C`, the AC50 under setting [1] is 17.8 µM [falling, single point].

In the case of `COc1cc(C2C3=C(CC(C)(C)CC3=O)OC(N)=C2[N+](=O)[O-])ccc1O` (configuration not stated), the AC50 under setting [1] was 29.1 µM [falling, single point].

Turning to `CCN(CC(=O)NC1CCCC1)S(=O)(=O)c1ccc(C)cc1`, the AC50 under setting [1] is 0.103 µM [rising, full curve, poor fit].

Regarding `O=C(CCNC(=O)c1ccc([N+](=O)[O-])cc1)Oc1ccc(F)c(F)c1`, the AC50 under setting [1] is 10.3 µM [falling, single point].

As to `CSc1cccc(NC(=O)COc2ccccc2)c1`, the AC50 under setting [1] is 1.58 µM [rising, full curve, poor fit].

`COc1ccc(NC(=O)COc2ccccc2C)cc1S(=O)(=O)N1CCCCC1`: the AC50 under setting [1] is 23.1 µM [falling, partial curve, poor fit].

For `Cc1cc(=O)[nH]c(SCC(=O)N2CCc3ccccc3C2)n1`, under setting [1], the half-maximal activity concentration (AC50) was 2.91 µM [rising, single point].

For the molecule `CC1(c2ccccc2)CC(C)(C)N(C(N)=O)c2ccccc21` (configuration not stated), under setting [1], the AC50 is 12.6 µM [rising, partial curve, poor fit].

Turning to `CC1(c2ccccc2)CC(C)(C)N(C(=O)C2CCCO2)c2ccccc21` (configuration not stated), the AC50 under setting [1] is 20.6 µM [rising, single point].

Regarding `CC12/C(=N/O)C3C4CC5C3/C(=N/O)C1C5C42` (configuration not stated), the AC50 under setting [1] is 5.17 µM [rising, single point].

In the case of `Cc1ccc(O)c(NC(=S)NC(=O)/C=C/c2ccco2)c1`, under setting [1], the AC50 is 11.2 µM [falling, partial curve].

Consider `COc1ccc2nc(SCC(=O)NCCc3ccccc3)[nH]c2c1`, for which the half-maximal activity concentration (AC50) under setting [1] is 3.55 µM [rising, single point].

Consider `CCOc1ncccc1C(=O)OCC(=O)Nc1cc(S(=O)(=O)N2CCOCC2)ccc1Cl`, for which the AC50 under setting [1] is 29.1 µM [falling, single point].

On to `CC1=CC2=NC(=O)CC(C)(C(=O)N(CC(=O)NC(C)(C)C)Cc3ccccc3)N2C=C1` (configuration not stated), for which the AC50 under setting [1] is 31.6 µM [rising, single point].

For the molecule `COc1ccc(CSc2nnnn2C)cc1[N+](=O)[O-]`, the AC50 under setting [1] was 3.16 µM [rising, partial curve, poor fit].

Take `C=C[C@]1(C)C=C2CC[C@H]3[C@@](C)(CCC[C@@]3(C)C(=O)O)[C@@H]2CC1`: the AC50 under setting [1] is 16.4 µM [rising, single point].

Consider `Cc1csc(=O)n1CC(=O)OCC(=O)Nc1ccccc1C(C)C`, for which the AC50 under setting [1] was 29.1 µM [rising, single point].

On to `Cc1ccc(/C=N/NC(=O)c2ccc3nc[nH]c3c2)o1`, for which the AC50 under setting [1] is 14.1 µM [falling, single point].

As to `O=C(NCC1CCCC(CNC(=O)N2CCc3ccccc32)C1)N1CCc2ccccc21` (configuration not stated), the AC50 under setting [1] is 4.11 µM [falling, single point].

Take `O=C(CN1C(=O)S/C(=C/c2cccs2)C1=O)N1CCCC1`: the AC50 under setting [1] was 14.6 µM [rising, single point].

Consider `Cc1oc(S(=O)(=O)N(C)C)cc1C(=O)Nc1ccc(F)cc1`, for which the AC50 under setting [1] was 11.2 µM [falling, single point].

Consider `Cc1cc(C(C)(C)C)ccc1OCCOCCN1CCCC1`, for which the AC50 under setting [1] is 29.1 µM [falling, single point].

Consider `O=C(NC1CCCCC1)C(c1ccc2ncccc2c1)N(Cc1cccs1)C(=O)c1cccs1` (configuration not stated), for which the AC50 reads like this: under setting [1], 2.24 µM [falling, full curve]; under setting [2], 14.1 µM [rising, partial curve, poor fit].

On to `O=C(OC1CCc2ccccc2C1=O)c1ccccc1O` (configuration not stated), for which the AC50 under setting [1] was 4.11 µM [rising, partial curve, poor fit].

On to `Cc1ccc(CNC(=O)CSCC(=O)O)cc1`, for which, under setting [1], the AC50 is 20.6 µM [rising, single point].

Regarding `OC[C@@H]1[C@@H](c2ccc(Cl)cc2)C(c2cccc(Cl)c2)=NN1c1ccccc1`, under setting [1], the AC50 is 29.1 µM [falling, single point].

`Cc1ccc(Oc2ncccc2NC(=O)CC2(CC(=O)O)CCCC2)c2c1CCC2`: the AC50 under setting [1] was 6.31 µM [rising, single point].

For `O=C(COC(=O)c1ccccc1NC(=O)c1ccco1)Nc1ncc(Cl)cc1Cl`, the AC50 under setting [1] is 29.1 µM [falling, single point].

As to `COc1ccc(/C=N/Nc2nnc(-c3ncc[nH]3)c3ccccc23)cc1`, under setting [1], the AC50 was 35.5 µM [rising, single point].

With `COc1cccc2cc(-c3cc(=O)oc4ccc(OCC(C)=O)cc34)oc12`, under setting [1], the concentration at half-maximal activity (AC50) was 1.58 µM [falling, partial curve, poor fit].

Take `CCOc1ccc(CN(C)C(=O)c2ccc(NS(=O)(=O)c3ccc4[nH]c(=O)[nH]c4c3)cc2)cc1`: the AC50 under setting [1] is 1.64 µM [rising, full curve, poor fit].

With `COc1ccc(/C=C/C(=O)NCCCN2CCOCC2)cc1`, the AC50 under setting [1] was 5.62 µM [falling, single point] and the AC50 under setting [2] was 5.62 µM [rising, single point].

Regarding `N#CC(C#N)=C(N)CSc1cccc[n+]1[O-]`, the AC50 under setting [1] was 1.41 µM [falling, full curve, poor fit] and the AC50 under setting [2] is 0.631 µM [falling, partial curve, poor fit].

`O=[N+]([O-])c1ccc(N=Cc2sc3ccccc3c2O)cc1`: the AC50 under setting [1] was 8.2 µM [falling, partial curve].

With `O=C1C(c2ccncc2)N(CCC2=CCCCC2)C(=O)CN1C1CCCCC1` (configuration not stated), under setting [1], the AC50 was 0.501 µM [falling, full curve, poor fit].

`CCOc1ccc(NC(=O)COC(=O)c2cc(=O)c3ccccc3o2)cc1`: the AC50 under setting [1] is 14.6 µM [falling, partial curve, poor fit].

Take `COc1cc(C2SCC(=O)N2Cc2ccccc2)cc(OC)c1OC` (configuration not stated): the AC50 under setting [1] was 0.112 µM [rising, full curve, poor fit].

With `Cc1ccc(OCC(=O)N(Cc2ccco2)C2CCS(=O)(=O)C2)cc1C` (configuration not stated), the AC50 under setting [1] is 35.5 µM [falling, single point].

Consider `O=C(CSCC(=O)Nc1cccc2ccccc12)Nc1cccc2ccccc12`, for which the AC50 under setting [1] was 7.08 µM [falling, partial curve].

As to `Cc1ccc(/C=N/NC(=O)c2c[nH]c3ccccc23)s1`, the AC50 under setting [1] is 7.08 µM [falling, partial curve].

Regarding `CCS(=O)(=O)CCSc1nc2ccccc2o1`, the AC50 under setting [1] is 6.51 µM [rising, single point].

In the case of `COc1ccc(/C=N/Nc2nnc(-c3ccccc3)c(=O)[nH]2)cc1`, the AC50 under setting [1] is 10.3 µM [falling, partial curve, poor fit].

For the molecule `O=C1N[C@H](Cc2ccccc2)COC(=O)[C@H](Cc2ccc(F)cc2)CC/C=C/C[C@@H]1CC(=O)N(CCO)Cc1ccccc1`, under setting [1], the AC50 is 11.6 µM [falling, single point].

In the case of `O=C(CSc1nc(Nc2ccccc2)nc(N2CCOCC2)n1)Nc1ccc2c(c1)OCCO2`, the AC50 under setting [1] is 35.5 µM [falling, single point].

In the case of `Cc1cc(C)nc(N/N=C/c2cccc3ccccc23)n1`, the AC50 under setting [1] is 29.1 µM [falling, single point].

In the case of `COc1cc(/C=C/c2noc(-c3ccccc3O)n2)ccc1OC(C)=O`, under setting [1], the AC50 is 11.2 µM [falling, partial curve].

Turning to `Cc1ccc(C(=O)C[n+]2cc(-c3ccccc3)n3c2CCCCC3)cc1`, the AC50 under setting [1] is 23.1 µM [falling, single point].

Take `N#Cc1ccccc1COC(=O)CCN=C1NS(=O)(=O)c2ccccc21`: under setting [1], the AC50 is 18.4 µM [rising, partial curve, poor fit].

For the molecule `Cc1ccc(/C=N/Nc2ccc(Cl)c(C(=O)O)c2)s1`, the AC50 under setting [1] was 0.082 µM [falling, full curve].
